Reference: patent US4128638A (ICI Australia Limited, priority 1975, dated 1978)
For part of these data: HELM strings list residues between dots; [ac] is acetyl, [am] amide, other brackets name non-standard units.

What was measured:
[1] = general procedure: Boc solid-phase peptide synthesis; PCTFE-g-benzhydrylaminostyrene resin; PCTFE-g-chloromethylstyrene resin for alkylamides; dicyclohexylcarbodiimide; settings: whole synthesis, scale 0.5 mmole
[2] = general procedure: Boc solid-phase peptide synthesis; PCTFE-g-benzhydrylaminostyrene resin; dicyclohexylcarbodiimide; settings: whole synthesis, scale 0.5 mmole

Row | Substance | crude mass [1] | isolated mass [1] | crude mass [2] | isolated mass [2]
1 | L-Pyroglutamyl-L-histidyl-L-tryptophanyl-L-seryl-L-tyrosyl-β-alanyl-L- leucyl-L-arginyl-L-prolinamide | 590 mg | 51 mg |  | 
2 | L-Pyroglutamyl-L-histidyl-L-tryptophanyl-L-seryl-L-tyrosyl-β-alanyl-L- leucyl-L-arginyl-L-prolyl-glycinamide |  |  | 387 mg | 138 mg
3 | L-Pyroglutamyl-L-histidyl-L-tryptophanyl-L-seryl-L-tyrosylglycyl-L-leucyl-L-arginyl-L-prolyl-β-alaninamide |  | 98 mg |  | 
4 | PEPTIDE1{[pGlu].H.W.S.Y.G.L.R.P.[Sar].[am]}$$$$V2.0 |  | 48 mg |  | 
